Among all 2,200 compounds or so, about 15 (0.7%) were called active.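 Rule for the calls: active = fitted half-maximal concentration for loss of luminescence signal no more than a set limit of log units above the top tested concentration; inconclusive = flat fit with 30 to 70% signal loss, or invalid fit; inactive = half-maximal concentration above that set limit.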 The list shows a part of the results.
test: inhibitors of ADP-Glo detection reagents, dose response, artefact control for GSK3beta inhibitor project, biochemical, luminescence, cell-free, homogeneous (AID 434947); conditions: 5 uM ADP;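 note: kinase-free counter screen of ADP-Glo detection reagents for GSK3beta hits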

EC50, inactive:
COCCn1c(SCC(=O)Nc2ccc(Cl)cn2)nc2ccccc21 > 30 µM
N#Cc1c2n(c3c(-c4ccccc4)ncnc13)CCC2 > 30 µM
O=C1NC(=O)c2c(NC(=O)C3CCCO3)cccc21 (configuration not stated) > 30 µM
CCOc1ccc(N2C(=O)C(Cl)=C(Nc3ccccc3O)C2=O)cc1 > 30 µM
CCSc1ccc2nnc(-c3cccc(F)c3)n2n1 > 30 µM
NNC(=O)CNC(=O)c1ccc(F)cc1 > 30 µM
CC(=O)C(Sc1ccc2nnc(-c3ccc(F)cc3)n2n1)C(C)=O > 30 µM
CC1=NN(C(=O)CCc2ccc3c(c2)OCO3)C(O)(C(F)(F)F)C1 (configuration not stated) > 30 µM
CCOc1ccc(Nc2nc(N)c([N+](=O)[O-])c(NCc3ccccc3)n2)cc1 > 30 µM
O=C(Cn1cc2c(n1)CCCCC2)NC1CCN(Cc2ccccc2)CC1 > 30 µM
Cc1ccc(-c2nnc3ccc(SC(C)C(=O)O)nn23)cc1 (configuration not stated) > 30 µM
COc1ccc(OC)c(Nc2nc(NCc3ccco3)nc(N)c2[N+](=O)[O-])c1 > 30 µM
COCCN(CC(=O)NCc1ccccc1)C(=O)CCC(=O)Nc1ccccn1 > 30 µM
Cc1ccc(OCCN(C)C(=O)C2CCC(=O)N(CCCN3CCOCC3)C2)cc1 (configuration not stated) > 30 µM
CC(C)C(=O)NC(C)C(c1cccs1)N1CCN(c2ccccc2)CC1 (configuration not stated) > 30 µM
CCOC(=O)c1c(S(=O)(=O)NCC(=O)Nc2ccccc2)c(C)n(C)c1C > 30 µM
Cc1ccnc(NC(=O)Cn2cc([N+](=O)[O-])cn2)c1 > 30 µM
CC(C)=CCc1c(O)cc2c(c1O)C(=O)CC(c1ccccc1)O2 (configuration not stated) > 30 µM
COc1cccc(-n2c(Cn3nc(C(F)F)cc3C(F)F)n[nH]c2=S)c1 > 30 µM
Nc1nc(Cl)nc2c1ncn2[C@@H]1O[C@H](CO)[C@@H](O)[C@H]1O > 30 µM
CCCN(CCC)Cc1c(C(=O)N/N=C/c2ccc(C)o2)nnn1-c1nonc1N > 30 µM
CCNc1nc(N)nc(-c2cc(Cl)ccc2O)n1 > 30 µM
O=C(NCCO)Nc1ccc2nsnc2c1 > 30 µM
Cc1nn(-c2ccccc2)c(Cl)c1C(=O)NCc1cccs1 > 30 µM
O=C(NCCCN1CCCCC1)c1ccc2c(c1)NC(=O)C(N1CCCCC1)S2 (configuration not stated) > 30 µM
Nc1ncc([N+](=O)[O-])c(N2CCCCCC2)n1 > 30 µM
COCCn1c(SCC(=O)NC(=O)NC(C)(C)C)nc2ccccc21 > 30 µM
CCCN(CCC)Cc1c(C(=O)N/N=C/c2cccs2)nnn1-c1nonc1N > 30 µM
O=C(Oc1ccc(Cl)cc1)N1CCCCC1 > 30 µM
Cc1cccc(C(=O)Nc2ccc(O)c3c(=O)cc(-c4ccccc4Cl)oc23)c1 > 30 µM
CCN1CCN(c2nc(Nc3cc(OC)ccc3OC)nc(Nc3cc(OC)ccc3OC)n2)CC1 > 30 µM
CCN(CC)S(=O)(=O)c1ccc(O)c(C(=O)OCC(=O)Nc2cc(C)c(C)cc2[N+](=O)[O-])c1 > 30 µM
N#Cc1c(-c2cccs2)nc(SCC(=O)c2cccs2)[nH]c1=O > 30 µM
COc1ccccc1NC(=S)NC1CCCCCCCCCCC1 > 30 µM
COc1ccccc1/C=N/NC(=O)c1nnn(-c2nonc2N)c1CN(C)c1ccccc1 > 30 µM
O=C(O)c1ccc(N=Nc2c(O)[nH]c3cc(Cl)ccc23)cc1 > 30 µM
COc1ccc(OC)c(Nc2c3ccccc3nc3ccccc23)c1 > 30 µM
Cc1ccc(CC(=O)Nc2ncc([N+](=O)[O-])s2)cc1 > 30 µM
COC(=O)c1ccc2nc(NC(=O)C3CC3)sc2c1 > 30 µM
CCOc1ccc2c(c1)-c1c(ssc1=S)C(C)(C)N2 > 30 µM
CS(=O)(=O)c1ccc2nc(NC(=O)CN3CCN(Cc4ccccc4)CC3)sc2c1 > 30 µM
Cc1ccc(Nc2nc(N)c([N+](=O)[O-])c(NCCO)n2)cc1 > 30 µM
CCCCc1cc(=O)oc2cc(C)cc(OC(C)C(=O)O)c12 (configuration not stated) > 30 µM
CCc1cc(=O)oc2cc(C)cc(O)c12 > 30 µM
Cc1nn(C)c(C(=O)N2CCc3ccccc32)c1Br > 30 µM
Nc1nonc1-n1nnc(C(=O)N/N=C/c2ccccn2)c1CNc1ccccc1 > 30 µM
CCOc1ccc(/C=C2/C(=N)N3OC(C)=CC3=NC2=O)cc1OC > 30 µM
Cc1ccc2nc3c(cc2c1)c(NC(=O)c1ccco1)nn3CC(C)C > 30 µM
COc1ccc(Nc2nc(NCCCN3CCOCC3)nc(N)c2[N+](=O)[O-])cc1 > 30 µM
CCNc1nc(N)nc(-c2cc(Cl)ccc2OC)n1 > 30 µM
CC(=O)c1cccc(NC(=O)NN2CCN(C)CC2)c1 > 30 µM
COc1ccc(-c2nn(-c3ccccc3)cc2/C=N/O)cc1OC > 30 µM
O=C(NCC(c1cccs1)N1CCOCC1)c1ccccc1NS(=O)(=O)c1ccc(Cl)cc1 (configuration not stated) > 30 µM
CSc1nc(NCCCO)c2c3c(sc2n1)CN(C)CC3 > 30 µM
O=C(CSc1nnc(-c2cccnc2)n1-c1ccccc1)Nc1ccc2c(c1)OCO2 > 30 µM
CCCCc1cc(=O)oc2cc(C)c(CN3CCCC3)c(O)c12 > 30 µM
COc1ccc(CN(CC(=O)NCc2ccc(F)cc2)C(=O)CCC(=O)Nc2ccccn2)cc1 > 30 µM
Nc1nc(NCCOCCO)nc(NCC2CCCO2)c1[N+](=O)[O-] (configuration not stated) > 30 µM
COc1ccc(COC(=O)C2=C(C)NC(=O)NC2c2ccc(O)c(OC)c2)cc1 (configuration not stated) > 30 µM
COc1ccc(C(=O)c2coc3ccc(O)c(CN4CCOCC4)c23)cc1 > 30 µM
O=C1Nc2cc(C(=O)N3CCC(N4CCCCC4)CC3)ccc2S/C1=C\c1ccccc1 > 30 µM
CCOC(=O)Cc1csc(NC(=O)CSc2nc(-c3ccccc3)c(C#N)c(=O)[nH]2)n1 > 30 µM
COc1cccc(CSc2nnc(-c3ccc(F)cc3)o2)c1 > 30 µM
O=C(Nc1ccccn1)Nc1ccccc1Cl > 30 µM
Cn1nc(C(F)(F)F)c2cc(NC(=O)OCc3ccc(C(C)(C)C)cc3)sc21 > 30 µM
CC(NCC1COc2ccccc2O1)C1COc2ccccc2O1 (configuration not stated) > 30 µM
CCN(CC)Cc1c(C(=O)N/N=C/c2cccc3ccccc23)nnn1-c1nonc1N > 30 µM
Cc1ccc(S(=O)(=O)N2CN(Cc3ccco3)c3nc4ccccc4nc32)cc1 > 3.8 µM
O=[N+]([O-])c1cc(-c2nc(-c3ccncc3)no2)ccc1Cl > 30 µM
O=[N+]([O-])c1cc(/C=N/O)ccc1N1CCCC1 > 30 µM
COc1ccc(C(C)N2CC34C=CC(O3)C(C(=O)O)C4C2=O)cc1 (configuration not stated) > 30 µM
CCOC(=O)CSc1ccc2nnc(-c3ccncc3)n2n1 > 30 µM
CN(C)Cc1c(C(=O)N/N=C/c2ccoc2)nnn1-c1nonc1N > 30 µM
Nc1nonc1-n1nnc(C(=O)N/N=C/c2ccc(Br)cc2)c1CN1CCOCC1 > 30 µM
Cc1ccc(CSc2ccc3nnc(-c4ccccn4)n3n2)cc1 > 30 µM
CCCNCC1COc2ccccc2O1 (configuration not stated) > 11 µM
COc1cc(OC)c(OC)cc1CNCC1COc2ccccc2O1 (configuration not stated) > 30 µM
CCCN1CCN(CCCNC(=O)Cn2nc(C)n3c(cc4cc(OC)ccc43)c2=O)CC1 > 30 µM
COc1ccc(OC)c(NCc2nnc(-c3ccccc3)o2)c1 > 30 µM
COc1cccc2c1cc1c(=O)n(CC(=O)NC3CCCCC3)nc(C)n12 > 30 µM
CCn1c(SCC(=O)Nc2cc(Cl)ccc2OC)nnc1C1CC1 > 30 µM
CCOC(=O)CSc1ccc2nnc(CCNS(=O)(=O)c3ccccc3)n2n1 > 30 µM
Cc1c(C(=O)O)cccc1-n1c(C)cc(/C=N/Nc2ccc([N+](=O)[O-])cn2)c1C > 30 µM
CCOC(=O)/C(C#N)=C/c1cn(CCC(=O)O)nc1-c1ccccc1 > 30 µM
COc1cc(OC)cc(C(=O)NCC2CCCN(C(=O)c3csc(C)n3)C2)c1 (configuration not stated) > 30 µM
Cc1cccc(OCc2nnc(SCC(=O)Nc3sc(C)c(C)c3C#N)n2C)c1 > 30 µM
CCCCc1cc(=O)oc2c(CN(C)C)c(O)ccc12 > 30 µM
CN=C(NC#N)SCC(=O)c1ccc(Cl)cc1Cl > 30 µM
COc1ccc(S(=O)(=O)CC(=O)c2cc3cccc(C)c3oc2=O)cc1 > 30 µM
CN(C)S(=O)(=O)c1cc(NC(=O)COC(=O)Cc2ccc(Br)cc2)ccc1Cl > 30 µM
O=C(CSc1ccc(F)cc1)Nc1ccc(N2CCOCC2)cc1 > 30 µM
COC(=O)c1nnn(-c2nonc2N)c1CSc1nc2ccccc2o1 > 30 µM

Entries shown so far containing a furan ring, fused or not (6):
EC50, inactive:
COc1ccc(OC)c(Nc2nc(NCc3ccco3)nc(N)c2[N+](=O)[O-])c1 > 30 µM
CCCN(CCC)Cc1c(C(=O)N/N=C/c2ccc(C)o2)nnn1-c1nonc1N > 30 µM
Cc1ccc2nc3c(cc2c1)c(NC(=O)c1ccco1)nn3CC(C)C > 30 µM
COc1ccc(C(=O)c2coc3ccc(O)c(CN4CCOCC4)c23)cc1 > 30 µM
Cc1ccc(S(=O)(=O)N2CN(Cc3ccco3)c3nc4ccccc4nc32)cc1 > 3.8 µM
CN(C)Cc1c(C(=O)N/N=C/c2ccoc2)nnn1-c1nonc1N > 30 µM

Among those listed so far, these contain a CF3 group.
EC50, inactive:
CC1=NN(C(=O)CCc2ccc3c(c2)OCO3)C(O)(C(F)(F)F)C1 (configuration not stated) > 30 µM
Cn1nc(C(F)(F)F)c2cc(NC(=O)OCc3ccc(C(C)(C)C)cc3)sc21 > 30 µM
